Assay results reported in PMC5683647, “Comparison of histone-like HU protein DNA-binding properties and HU/IHF protein sequence alignment”.
The exact form of at least one protein or probe is not confirmed. A weaker result is weaker than the reference pair of the same experiment. At least one verdict rests on a figure or table, not on a statement of the authors.

Molecular target: T1, HU alpha (Escherichia coli) (UniProt P0ACF0)
T1 sequence: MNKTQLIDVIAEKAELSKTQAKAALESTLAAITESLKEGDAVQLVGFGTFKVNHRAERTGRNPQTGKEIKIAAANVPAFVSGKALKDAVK
Test: EMSA
Settings: 20 mM Tris-HCl pH 8.0, 7% glycerol, 40 mM NaCl (dsDNA length series, 200 nM DNA, gel 50 mM Tris-borate) or 150 mM NaCl, recombinant protein, protein details: N-terminal 6xHisTEV removed by TEV protease

Sequence	binding result (40 mM NaCl, label: 5'-HEX)	also measured
AGTCTAGAGTGCAGTTGAGTCCTTG (double strand) [D25 dsDNA]	binds	–
AGTCTAGAGTGCAGTTGAGTCCT (double strand) [D23 dsDNA]	binds	–
AGTCTAGAGTGCAGTTGAGTCCTTGCTACGACGGATCCCTTAGGTCAG (double strand) [D48 dsDNA (ds)]	–	binding result (150 mM NaCl, smear, label: 5'-HEX on strand 1): binds more weakly
GTCTAGAGTGCAGTTGAGTCCTTGCTACGA (double strand) [D31 dsDNA]	binds	–
AGTCTAGAGTGCAGTTGAGTCCTTGCTACGACGGATCCCTTAGGTCAG / CTGACCTAAGGGATCCGTCGTAGCAAGG / ACTCAACTGCACTCTAGACT [nicked DNA (n)]	–	binding result (150 mM NaCl, label: 5'-HEX on strand 1, folded or branched DNA): binds
AGTCTAGAGTGCAGTTGAGTCCTTGCTACGACG (double strand) [D33 dsDNA]	binds	–
AGTCTAGAGTGCAGTTGAGTCCTTGCT (double strand) [D27 dsDNA]	binds	–
